Reference: publication PMC12623972
These are yes or no findings as the source states them, for the method shown. In cells and extracts the contact can be indirect. Some entries that bind do so weakly or less than the wild type. For some of these results: Sequences can lack the tags named with a protein.

Sequences of proteins named here, by UniProt entry; tags and fusion partners are left off.
UniProt P29341: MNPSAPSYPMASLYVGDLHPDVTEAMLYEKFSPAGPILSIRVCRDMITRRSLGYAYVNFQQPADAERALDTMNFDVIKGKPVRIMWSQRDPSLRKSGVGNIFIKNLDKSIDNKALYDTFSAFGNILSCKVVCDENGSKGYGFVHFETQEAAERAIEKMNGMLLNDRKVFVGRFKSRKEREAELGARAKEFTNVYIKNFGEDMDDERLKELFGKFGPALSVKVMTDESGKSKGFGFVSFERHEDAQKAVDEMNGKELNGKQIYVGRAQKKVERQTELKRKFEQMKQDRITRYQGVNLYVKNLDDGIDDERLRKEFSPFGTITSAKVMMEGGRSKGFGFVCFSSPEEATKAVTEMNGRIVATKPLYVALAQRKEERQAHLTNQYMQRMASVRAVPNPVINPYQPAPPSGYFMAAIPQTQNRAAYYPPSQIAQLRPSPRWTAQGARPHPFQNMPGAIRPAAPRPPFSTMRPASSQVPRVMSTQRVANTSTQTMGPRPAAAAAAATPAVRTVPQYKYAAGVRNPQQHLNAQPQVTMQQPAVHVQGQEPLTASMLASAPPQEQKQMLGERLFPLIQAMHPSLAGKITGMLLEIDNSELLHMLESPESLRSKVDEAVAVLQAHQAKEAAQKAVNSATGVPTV
UniProt Q80XI3: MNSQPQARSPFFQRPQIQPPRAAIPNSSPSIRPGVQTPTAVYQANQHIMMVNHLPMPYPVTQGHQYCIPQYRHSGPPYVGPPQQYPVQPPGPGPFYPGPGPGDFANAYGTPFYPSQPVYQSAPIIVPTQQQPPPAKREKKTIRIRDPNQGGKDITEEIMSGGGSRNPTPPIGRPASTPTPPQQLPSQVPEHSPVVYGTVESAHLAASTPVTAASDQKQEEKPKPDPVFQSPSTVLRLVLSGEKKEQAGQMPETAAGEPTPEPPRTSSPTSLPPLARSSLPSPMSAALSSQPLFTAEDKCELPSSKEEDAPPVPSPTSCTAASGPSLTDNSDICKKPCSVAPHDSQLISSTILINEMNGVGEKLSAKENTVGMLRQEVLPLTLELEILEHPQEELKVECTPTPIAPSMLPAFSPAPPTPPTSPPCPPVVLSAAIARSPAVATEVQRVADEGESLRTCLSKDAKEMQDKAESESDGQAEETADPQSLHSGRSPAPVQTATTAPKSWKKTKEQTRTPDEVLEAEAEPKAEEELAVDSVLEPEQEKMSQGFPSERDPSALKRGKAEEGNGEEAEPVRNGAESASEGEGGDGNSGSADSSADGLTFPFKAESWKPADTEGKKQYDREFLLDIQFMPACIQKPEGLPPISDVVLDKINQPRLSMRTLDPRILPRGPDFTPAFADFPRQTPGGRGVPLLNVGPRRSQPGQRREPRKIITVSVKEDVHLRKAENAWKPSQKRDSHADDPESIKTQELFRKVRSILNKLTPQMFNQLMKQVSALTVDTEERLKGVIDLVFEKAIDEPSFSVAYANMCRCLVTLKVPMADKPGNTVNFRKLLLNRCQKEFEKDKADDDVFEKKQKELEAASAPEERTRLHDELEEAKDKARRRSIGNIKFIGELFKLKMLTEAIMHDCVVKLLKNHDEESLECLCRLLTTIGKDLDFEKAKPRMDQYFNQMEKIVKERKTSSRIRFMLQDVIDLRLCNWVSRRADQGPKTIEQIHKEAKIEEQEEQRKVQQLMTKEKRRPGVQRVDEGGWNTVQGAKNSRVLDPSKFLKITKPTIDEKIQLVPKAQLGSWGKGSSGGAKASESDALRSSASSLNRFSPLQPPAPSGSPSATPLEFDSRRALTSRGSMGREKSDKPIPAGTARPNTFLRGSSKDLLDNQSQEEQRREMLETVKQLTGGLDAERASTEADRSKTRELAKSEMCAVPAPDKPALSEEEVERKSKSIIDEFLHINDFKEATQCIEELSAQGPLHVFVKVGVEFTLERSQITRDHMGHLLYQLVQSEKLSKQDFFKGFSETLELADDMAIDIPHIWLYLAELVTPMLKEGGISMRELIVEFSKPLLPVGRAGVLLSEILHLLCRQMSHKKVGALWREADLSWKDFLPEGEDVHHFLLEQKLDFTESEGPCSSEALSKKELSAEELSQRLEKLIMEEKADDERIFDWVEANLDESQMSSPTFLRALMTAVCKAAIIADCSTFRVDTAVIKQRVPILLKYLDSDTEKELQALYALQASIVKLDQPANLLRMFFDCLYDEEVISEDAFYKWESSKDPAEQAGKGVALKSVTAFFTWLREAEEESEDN

Legend:
[1] = molecular target: T1, MYC-tagged DAZL_FL (mouse) (UniProt Q64368); experiment: co-IP; HEK293T cells (text: HEK293) over-expressing HA-tagged PABPC1 with MYC-tagged DAZL_FL or DAZL_Sh; IgG as negative control
T1 sequence: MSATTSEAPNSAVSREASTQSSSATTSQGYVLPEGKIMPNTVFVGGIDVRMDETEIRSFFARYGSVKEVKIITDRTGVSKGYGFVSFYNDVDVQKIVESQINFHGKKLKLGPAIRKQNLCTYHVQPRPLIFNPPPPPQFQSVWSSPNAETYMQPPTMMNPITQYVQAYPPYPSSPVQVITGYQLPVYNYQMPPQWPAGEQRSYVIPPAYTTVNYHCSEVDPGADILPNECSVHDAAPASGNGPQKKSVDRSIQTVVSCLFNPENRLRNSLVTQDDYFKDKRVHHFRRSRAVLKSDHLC

[2] = molecular target: T2, DAZL (endogenous in wildtype mouse testes; full-length isoform DAZL_FL predominant) (mouse (endogenous in testes)) (UniProt Q64368); experiment: co-IP; testes of wildtype and Dazl^E8KO mice; blots for DAZL, EIF4G3 and PABPC1; non-immune IgG as negative control
T2 sequence: T1 sequence

[3] = molecular target: T3, DAZL short isoform lacking exon 8 (DAZL_Sh), endogenous in Dazl^E8KO mouse testes (mouse (endogenous in testes)) (UniProt Q64368); experiment: as above
T3 sequence: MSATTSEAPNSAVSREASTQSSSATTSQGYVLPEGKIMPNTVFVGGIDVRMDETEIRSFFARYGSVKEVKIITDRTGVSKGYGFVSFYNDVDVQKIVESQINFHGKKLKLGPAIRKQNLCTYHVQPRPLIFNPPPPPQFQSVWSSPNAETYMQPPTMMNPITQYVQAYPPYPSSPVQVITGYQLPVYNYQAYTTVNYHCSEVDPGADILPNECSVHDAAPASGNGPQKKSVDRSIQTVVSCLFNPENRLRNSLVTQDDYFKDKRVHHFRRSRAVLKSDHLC

HA-tagged PABPC1 (from UniProt P29341 1-636)
binding [1]: binds

Poly(A) Binding Protein Cytoplasmic 1 (PABPC1), endogenous in mouse testes (from UniProt P29341 1-636)
binding [2]: binds

translation initiation factor EIF4G3, endogenous in mouse testes (from UniProt Q80XI3 1-1579)
binding [3]: no binding
binding [2]: binds
